Measured values: PubChem BioAssay AID651640 (Broad Institute, 2012)
Hit rate of the full screen: of about 350,000 compounds, about 6,000 (1.7%) were called active. Inconclusive results, whose numbers are uncertain, are shown with a selection of clear calls. Cut-off read from the data, not from the text of the source: active = CPE inhibition above about 20% (passing the limit was not always enough); inconclusive = no clear call, values can overlap the other calls; tested in BHK-21 cells. Some compounds were tested as several samples or in several runs, with calls that do not always agree.

Experiment: protection of cells from dengue 2 killing – plate reader, single concentration, primary screen (AID 651640);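 note: 0% = median of neutral control wells and 100% = median of positive control wells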
Conditions: DENV2-infected cells, cytopathic effect rescue, at 9.99 µM, hits give high values
With Cc1noc(C)c1S(=O)(=O)N(C)C[C@H]1Oc2ccc(NC(=O)Nc3ccc4c(c3)OCO4)cc2C(=O)N([C@@H](C)CO)C[C@H]1C the CPE inhibition was inconclusive: 36%. In the case of Cc1cc(N(C)C(=O)c2ccc3c(c2)S(=O)(=O)c2cc(Cl)ccc2C3=O)c(C(F)(F)F)o1, the CPE inhibition is reported as active: 48.9%. In the case of NC(=O)CC(NC(=O)c1ccccc1)c1ccc(N2CCC(Br)CC2)c([N+](=O)[O-])c1 (stereo unspecified), the CPE inhibition is reported as inconclusive: 30.5%. With Cc1ccc(C(=O)OCC(=O)Nc2c(C)nn(-c3ccccc3)c2C)c(O)c1 the CPE inhibition was inactive: -3.77%. With O=C(c1cnccn1)N1CC[C@@H]2[C@H]1c1cc(-c3ccccc3F)ccc1N[C@@H]2CO the CPE inhibition was inconclusive: 22.2%. For Cc1cc(C)cc(NC(=S)NC2CC3CCC(C2)N3Cc2ccco2)c1 (stereo unspecified), the CPE inhibition was inconclusive: 21.5%. With CC=Cc1ccc2n(c1=O)C[C@H]1[C@H](CO)[C@@H](C(=O)NC3CCC3)[C@@H]2N1S(=O)(=O)c1cn(C)cn1 (mixture of isomers) the CPE inhibition was inconclusive: 31.4%. For CC(NC(=O)CSc1ncccn1)c1ccc2c(c1)OCO2 (stereo unspecified), the CPE inhibition was inactive: 4.15%. For CC(C)=CCN[C@H](CO)c1ccccc1, the CPE inhibition was inconclusive: 33.5%. For CCOc1ccc(N(CC(=O)NC2CCCC(C)C2C)S(=O)(=O)c2c(C)noc2C)cc1 (stereo unspecified), the CPE inhibition was active: 26.1%. With COc1ccc(-c2cc3cc(-c4cc(OC)c(OC)c(OC)c4)ccc3o2)cc1 the CPE inhibition was inconclusive: 37.3%. For Cc1cc(C)nc(Nc2ncc(O)n2-c2ccc(Br)cc2)n1, the CPE inhibition was inconclusive: 45.7%. With COc1ccc(S(=O)(=O)N(C)c2ccc(C(=O)NCc3ccccn3)cc2)cc1OC the CPE inhibition was inconclusive: 21.9%. In the case of COc1ccc2c3c([nH]c2c1)[C@H](CO)N(C(=O)c1ccccc1)CC31CN(C(=O)CC2CC2)C1, the CPE inhibition is reported as inconclusive: 21.7%. For C[C@@H]1CN([C@H](C)CO)S(=O)(=O)c2ccc(-c3ccc(C(=O)N(C)C)cc3)cc2O[C@@H]1CN(C)C(=O)C1CCC1, the CPE inhibition was inactive: -4.61%. For COc1ccc(/C=N/Nc2nncn2N)cc1Br, the CPE inhibition was inconclusive: 34%. In the case of CC(=O)N[C@H]1C=C[C@@H](CC(=O)NCc2ccc(Cl)cc2)O[C@H]1CO, the CPE inhibition is reported as inconclusive: 22.1%. For CC(=O)Nc1ccc(C(=O)OCC(=O)Nc2ccccc2Sc2ccccc2)cc1, the CPE inhibition was inconclusive: 34%. With C[C@H]1CN([C@@H](C)CO)C(=O)c2cc(C#CC(C)(C)O)cnc2O[C@H]1CN(C)Cc1cncnc1 the CPE inhibition was active: 32.8%. For O=C(Nc1ccc(C(F)(F)F)cc1)N[C@@H]1CC[C@H](CCn2cc(C3(O)CCCC3)nn2)O[C@@H]1CO, the CPE inhibition was inactive: -1.65%. For C[C@H]1CN([C@@H](C)CO)C(=O)CCCn2nncc2CO[C@H]1CN(C)S(=O)(=O)c1ccccc1F, the CPE inhibition was active: 27.4%. For Oc1ccc(/C=N/n2cc(-c3ccccc3)[nH]c2=S)cc1, the CPE inhibition was inactive: 1.59%. In the case of CCCCc1nnn2c1C1c3cc(Br)ccc3CCN1C(=O)C2 (stereo unspecified), the CPE inhibition is reported as inconclusive: 61.1%. With COc1ccc(C(=O)Nc2ccc3nc(N4CCOCC4)sc3c2)cc1OC the CPE inhibition was inconclusive: 24.6%. With OC[C@@H]1CC[C@@H]2O[C@H](CCc3ccc(-c4ccccc4)cc3)[C@@H](n3cc(C4CC4)nn3)C[C@@H]2O1 the CPE inhibition was active: 20%. For CC(NC(=O)c1ccncc1)c1ccc(Cl)cc1Cl (stereo unspecified), the CPE inhibition was inactive: 12.5%. With O=C(COC(=O)c1ccc(Cl)nc1)Nc1ccc(N2CCCCC2)cc1 the CPE inhibition was active: 61.6%. In the case of C[C@H](CO)N1C[C@H](C)[C@@H](CN(C)S(C)(=O)=O)Oc2cc(C#Cc3ccc(F)cc3)ccc2S1(=O)=O, the CPE inhibition is reported as inconclusive: 26.8%. In the case of O=C(C[C@H]1CC[C@H](NC(=O)c2ccncc2)[C@@H](CO)O1)NCC1CCCCC1, the CPE inhibition is reported as inactive: 11.1%. For Cc1noc(C)c1NC(=O)N(C)C[C@H]1OCCCC[C@H](C)Oc2ccc(NC(=O)C3CCCCC3)cc2C(=O)N([C@@H](C)CO)C[C@@H]1C, the CPE inhibition was inconclusive: 75.6%. In the case of COc1cccc(CN(C)C(=O)[C@@H](Cc2ccccc2)NC(=O)[C@H]2O[C@@H](n3ccc(=O)[nH]c3=O)[C@H](O)[C@@H]2O)c1, the CPE inhibition is reported as active: 21.6%. In the case of CCC(=O)N[C@@H]1CC[C@@H](CC(=O)OC)O[C@H]1CO, the CPE inhibition is reported as inactive: -7.03%. In the case of CCc1cccc(C)c1N1C(=O)CN(Cc2ccccc2)C1=S, the CPE inhibition is reported as inconclusive: 21.1%. For COc1cccc(NC(=O)N[C@@H]2CC[C@@H](CC(=O)N3CCCCC3)O[C@H]2CO)c1, the CPE inhibition was inconclusive: 21.6%. With CC(C)(C)OC(=O)CNC(=O)c1[nH]cnc1C(=O)NCCCCCN the CPE inhibition was inconclusive: 26.6%. In the case of Cc1cc(C(=O)N[C@@H](c2ccccc2)[C@]2(C)C[C@H]2[C@@H](C)C(=O)Nc2ccc3ccccc3c2)no1, the CPE inhibition is reported as active: 76.6%. For C[C@@H]1CN([C@H](C)CO)C(=O)c2cccc(NC(=O)c3nc4ccccc4s3)c2O[C@H]1CN(C)C(=O)NC1CCCCC1, the CPE inhibition was active: 45.2%. For COCC#Cc1ccc2c(c1)O[C@@H](CN(C)S(=O)(=O)c1cccc(F)c1)[C@H](C)CN([C@H](C)CO)S2(=O)=O, the CPE inhibition was inconclusive: 26%. For O=C(NS(=O)(=O)c1ccccc1[N+](=O)[O-])c1ccccc1, the CPE inhibition was inconclusive: 60%. In the case of C[C@@H]1CCCCO[C@@H](CN(C)C(=O)Nc2ccc(C(F)(F)F)cc2)[C@H](C)CN([C@H](C)CO)C(=O)c2cc(NS(=O)(=O)c3ccc(F)cc3)ccc2O1, the CPE inhibition is reported as active: 69.1%. With Cc1noc(C)c1NC(=O)N(C)C[C@H]1Oc2ncc(C#CC(C)C)cc2C(=O)N([C@@H](C)CO)C[C@H]1C the CPE inhibition was active: 53.4%. For COc1ccc(-c2nnc3ccc(SCC(=O)N4CCCCC4)nn23)cc1OC, the CPE inhibition was active: 29.5%. For O=C(COC(=O)CNC(=O)c1ccccc1F)NCCNC(=O)COC(=O)CNC(=O)c1ccccc1F, the CPE inhibition was inconclusive: 50.4%. In the case of C[C@H]1CN([C@@H](C)CO)C(=O)c2c(c3ccccc3n2C)-c2ccccc2CO[C@H]1CN(C)C(=O)c1ccncc1, the CPE inhibition is reported as inactive: -1.94%. For O=S(=O)(Cc1cc(N2CCOCC2)nc(-c2ccccn2)n1)c1ccccc1, the CPE inhibition was active: 32.9%. For CS(=O)(=O)c1ccc(Cl)c(NC(=O)COC(=O)Cc2c[nH]c3ccccc23)c1, the CPE inhibition was inconclusive: 27.2%.
